# In PubChem BioAssay AID493014 (National Center for Advancing Translational Sciences (NCATS), 2011):
# The list shows a part of the results. These are further read-outs of the screen, such as a control signal, another cell line or another target. No call is given for them. Compounds called inactive in the main read-out are mostly missing here. Words in brackets tell the shape of the fitted curve; partial curves, single points and poor fits give uncertain potencies.
# Assay: qHTS Assay to Find Inhibitors of Chronic Active B-Cell Receptor Signaling
# Details: ABC-DLBCL IkBa-CBG/CBR reporter, luminescence ratio (green luciferase fused to IkBa over red control in TMD8 lymphoma cells), 4 h
# Procedure, shortened: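 Cell line TMD8 (human ABC DLBCL), stably expressing tet-inducible CBG68-IkBa fusion and CBR; IMDM/0.5% FBS; cpd up to 46 uM; dox induction, 4 h, 37C/5% CO2; dual luminescence; green/red ratio; MG132 control.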
# [1] = measured here: CBR red luminescence, cell number
# [2] = measured here: IkBa-CBG green luminescence
SMILES,AC50 [1],AC50 [2]
O=C(Nc1ccc(F)cc1)N1CCC(c2nc3c(nnn3Cc3cccc(Cl)c3)c(=O)[nH]2)CC1,"35.5 µM [falling, single point]",
CCOc1cc(/C=C2\COc3ccccc3C2=O)cc(Br)c1OCC(=O)N(C)C,"12.6 µM [falling, partial curve]",
N/C(=N\N=C\c1cccc([N+](=O)[O-])c1)c1nonc1N,"6.31 µM [rising, full curve, poor fit]",
O=C(O)COCc1nc2ccccc2s1,"22.4 µM [rising, single point]",
Cc1c(CNCCC2=CCCCC2)c(C(=O)O)c(C)n1Cc1ccccc1,"6.31 µM [rising, single point]",
O=c1c2cn[nH]c2nc(SCc2cccc(Br)c2)n1-c1ccc(Cl)cc1,"10 µM [falling, partial curve]",
O=C(/C=C/c1ccncc1)c1cc(Cl)ccc1O,"11.2 µM [falling, partial curve]",
Cc1c(C(=O)N2CCCC2)oc2ccc(Br)cc12,"14.1 µM [rising, partial curve]",
Nc1nc2sc3c(c2c(=O)s1)CCCC3,"2.06 µM [rising, single point]",
Cc1cc(NC(=O)Nc2ccc(Cl)cc2)n(-c2ccccc2)n1,"7.94 µM [rising, partial curve, poor fit]",
O=C(CSc1nnc(COc2ccccc2)n1Cc1ccco1)Nc1ccc2c(c1)OCCO2,"8.2 µM [falling, partial curve, poor fit]",
COc1cc(OC)cc(C(=O)Oc2c(CN3CCOCC3)cc(Cl)c3cccnc23)c1,"3.98 µM [falling, full curve, poor fit]","3.55 µM [falling, partial curve]"
COc1cc(C=O)ccc1OCc1ccc(Cl)nc1,"35.5 µM [falling, single point]",
N#Cc1c(CSCC(=O)O)cc(=O)n2c1[nH]c1ccccc12,"2.51 µM [rising, partial curve, poor fit]",
COc1ccc(OC)c(CNC(=O)C2CCC(=O)N2C(C)C)c1 (configuration not stated),"35.5 µM [rising, single point]",
O=C(CCN1C(=O)S/C(=C\c2ccc(F)cc2)C1=O)Nc1ccc(O)cc1C(=O)O,"14.1 µM [falling, partial curve, poor fit]",
Cc1cccc(OCCCCn2c(CO)nc3ccccc32)c1,"3.16 µM [rising, full curve]",
O=S(=O)(/N=C(/Nc1nc2ccccc2s1)c1ccccc1)c1ccccc1,"14.6 µM [falling, single point]",
COc1ccc2c(c1)c(CC(=O)OCC(=O)N(C)C)c(C)n2C(=O)c1ccc(Cl)cc1,"17.8 µM [falling, single point]",
Cc1ccc(/C=C/C(=O)Nn2cnnc2)cc1,"11.6 µM [falling, single point]",
FC(F)Oc1ccc(C2N=C(c3ccccc3)NO2)cc1 (configuration not stated),"0.112 µM [rising, full curve, poor fit]",

SMILES,AC50 [1],AC50 [2]
O=C1c2ccc(Oc3ccc([N+](=O)[O-])cc3)cc2C(=O)N1CCCO,"35.5 µM [rising, single point]",
CCOc1cccc(N2C(=O)CC(NCc3ccc(S(N)(=O)=O)cc3)C2=O)c1 (configuration not stated),"6.31 µM [falling, single point]",
CS(=O)(=O)c1ccc(C(=O)OCC(=O)c2ccc(Cl)s2)cc1,"3.26 µM [rising, full curve, poor fit]",
Cc1ccc(S(=O)(=O)Oc2ccccc2/C=N/N=C(N)N)cc1,"35.5 µM [falling, single point]",
O=C(CSc1nnc(Cc2cccs2)n1CCc1ccccc1)N1CCCc2ccccc21,"23.1 µM [falling, partial curve]",
COC(=O)c1sccc1NC(=O)Nc1ccc(C)cc1C,"15.8 µM [falling, partial curve, poor fit]",
COc1cccc(CNc2nc3nc(C)cc(C)n3n2)c1,"11.6 µM [falling, partial curve]",
COc1ccc(CN2CCNC(=O)C2CC(=O)N(C)CC2CCOCC2)cc1C (configuration not stated),"0.794 µM [rising, full curve, poor fit]",
COc1cccc(NC(=O)CCN2C(=O)c3cccc([N+](=O)[O-])c3C2=O)c1,"35.5 µM [falling, single point]",
O=C(NCCCN1CCOCC1)c1cc(-c2ccccc2F)no1,"15.8 µM [falling, single point]",
CC1C/C(=C/c2ccco2)C(=O)/C(=C/c2ccco2)C1 (configuration not stated),"16.4 µM [falling, partial curve, poor fit]","23.1 µM [falling, partial curve, poor fit]"
Cn1c(=O)cc(OCC(=O)NCc2cccs2)c2ccccc21,"15.8 µM [falling, partial curve, poor fit]",
Oc1ccc(Cl)cc1CNc1ccc(Br)cn1,"0.013 µM [rising, full curve, poor fit]",
CCCN(CCC)S(=O)(=O)c1ccc(C(=O)N2CCOCC2)cc1,"0.0326 µM [rising, full curve, poor fit]",
COc1cccc(C2CC(c3c(Cl)cccc3Cl)n3nc(N)nc3N2)c1 (configuration not stated),"14.6 µM [rising, partial curve, poor fit]",
COc1ccc(CCN2CC(C(=O)NCCc3cn[nH]c3)CCC2=O)cc1 (configuration not stated),"6.31 µM [rising, full curve, poor fit]",
CCCN(CCC)S(=O)(=O)c1ccc(NC(=O)Cc2cccs2)cc1,"0.206 µM [rising, full curve, poor fit]",
COc1ccc(CCN2CCCC(CN(C)C(=O)c3ccoc3C)C2)cc1 (configuration not stated),"31.6 µM [rising, single point]",
COc1ccc(/C=C/C(=O)OCC(=O)c2ccccc2F)cc1,"3.66 µM [rising, partial curve, poor fit]",
COc1nnc(-c2ccc(N3CCCCC3)c(NC(C)=O)c2)c2ccccc12,"9.2 µM [falling, partial curve, poor fit]",
CCN(CC)CCCNC(=O)CSc1c2c(nc3cc(Cl)ccc13)CCCC2,"5.01 µM [falling, partial curve, poor fit]",

# An excerpt from above in order of SMILES length, falling.
SMILES,AC50 [1],AC50 [2]
COc1cccc(NC(=O)CCN2C(=O)c3cccc([N+](=O)[O-])c3C2=O)c1,"35.5 µM [falling, single point]",
CCOc1cccc(N2C(=O)CC(NCc3ccc(S(N)(=O)=O)cc3)C2=O)c1 (configuration not stated),"6.31 µM [falling, single point]",
O=C1c2ccc(Oc3ccc([N+](=O)[O-])cc3)cc2C(=O)N1CCCO,"35.5 µM [rising, single point]",
COc1nnc(-c2ccc(N3CCCCC3)c(NC(C)=O)c2)c2ccccc12,"9.2 µM [falling, partial curve, poor fit]",
COc1ccc(CN2CCNC(=O)C2CC(=O)N(C)CC2CCOCC2)cc1C (configuration not stated),"0.794 µM [rising, full curve, poor fit]",
CCN(CC)CCCNC(=O)CSc1c2c(nc3cc(Cl)ccc13)CCCC2,"5.01 µM [falling, partial curve, poor fit]",
CS(=O)(=O)c1ccc(C(=O)OCC(=O)c2ccc(Cl)s2)cc1,"3.26 µM [rising, full curve, poor fit]",
COc1ccc(CCN2CCCC(CN(C)C(=O)c3ccoc3C)C2)cc1 (configuration not stated),"31.6 µM [rising, single point]",
Cc1ccc(S(=O)(=O)Oc2ccccc2/C=N/N=C(N)N)cc1,"35.5 µM [falling, single point]",
CC1C/C(=C/c2ccco2)C(=O)/C(=C/c2ccco2)C1 (configuration not stated),"16.4 µM [falling, partial curve, poor fit]","23.1 µM [falling, partial curve, poor fit]"
COc1ccc(/C=C/C(=O)OCC(=O)c2ccccc2F)cc1,"3.66 µM [rising, partial curve, poor fit]",
Cn1c(=O)cc(OCC(=O)NCc2cccs2)c2ccccc21,"15.8 µM [falling, partial curve, poor fit]",
O=C(NCCCN1CCOCC1)c1cc(-c2ccccc2F)no1,"15.8 µM [falling, single point]",
COc1cccc(CNc2nc3nc(C)cc(C)n3n2)c1,"11.6 µM [falling, partial curve]",
Oc1ccc(Cl)cc1CNc1ccc(Br)cn1,"0.013 µM [rising, full curve, poor fit]",

# The list goes on.

SMILES,AC50 [1],AC50 [2]
CC(C)C(=O)Nc1ccc2nn(-c3ccc(F)cc3)nc2c1,"2.51 µM [rising, full curve, poor fit]",
COc1ccc(CC(=O)OCC(=O)NC(=O)NC(C)C)cc1,"13 µM [rising, partial curve, poor fit]",
Cc1nn(-c2ccccc2)c(C)c1C(=O)OCC(=O)Nc1cccc(S(N)(=O)=O)c1,"7.31 µM [falling, single point]",
CCCOC(=O)C1=C(C)NC(=O)NC1c1ccc(Br)s1 (configuration not stated),"12.6 µM [rising, partial curve, poor fit]",
COc1ccc(-c2nc(-c3ccncc3)no2)c(OC)c1,"0.282 µM [falling, full curve]",
O=C(O)C1CCCCN1C(=O)c1cc2c(s1)CCCCC2 (configuration not stated),"6.51 µM [falling, partial curve]",
CCC(=O)N1CCCc2cc(S(=O)(=O)N3CCN(c4ccccn4)CC3)ccc21,"0.103 µM [rising, full curve, poor fit]",
CCCCN(C)C/C(O)=C(\C#N)c1nc(-c2ccccc2)cs1,"29.1 µM [falling, single point]",
O=C(Nc1cccc(Br)c1)c1cc(S(=O)(=O)N2CCOCC2)cs1,"35.5 µM [falling, single point]",
Cc1cc(C)nc(/N=C(\NC(=O)C(C)(C)C)Nc2ccccc2)n1,"1.26 µM [rising, full curve, poor fit]",
Cc1ccc(-c2cc(C(=O)N/N=C/c3c(C)nn(-c4ccccc4)c3C)n[nH]2)s1,"7.31 µM [rising, partial curve, poor fit]","2.59 µM [falling, partial curve, poor fit]"
COc1ccc(C(=O)COC(=O)c2ccn(C)n2)cc1,"7.08 µM [rising, partial curve, poor fit]",
Cn1c(=O)c2c(ncn2CC(=O)N2CCN(C(=O)c3ccco3)CC2)n(C)c1=O,"6.31 µM [rising, single point]",
Oc1ccc(/C=C/c2ccc3ccccc3n2)cc1,"11.2 µM [falling, partial curve, poor fit]",
Cc1cccc2sc(N(CCCN(C)C)C(=O)c3ccc(Cl)s3)nc12,"14.1 µM [falling, single point]",
CCOC(=O)Cn1c(=O)oc2cc(S(=O)(=O)NC3CCCc4ccccc43)ccc21 (configuration not stated),"29.1 µM [falling, single point]",
Fc1ccc(C2c3cccn3CCN2C(=S)Nc2cccc(Br)c2)cc1 (configuration not stated),"11.2 µM [falling, partial curve]","14.1 µM [rising, partial curve, poor fit]"
CCOCCCNC(=S)N1C2CCC1CC(NC(=O)Nc1ccc(C(=O)OCC)cc1)C2 (configuration not stated),"0.708 µM [rising, full curve, poor fit]",
S=C(c1ccc(-c2ccc(Cl)cc2Cl)o1)N1CCCCC1,"10.3 µM [rising, partial curve, poor fit]",
CC(=O)NNC(=S)NC(=O)c1ccc(C)cc1,"11.2 µM [falling, partial curve]",
CCN1C(=O)/C(=C/N(C(C)=O)c2ccccc2)N(c2ccccc2)C1=S,"2.31 µM [rising, single point]",
